Values quoted from earlier work in patent US9459254B2, “Method for determining sensitivity to an anticancer agent” (KEIO UNIVERSITY, priority 2009, dated 2016).
At least one compound was matched to its structure with a doubt left.

Settings: cited from earlier work

CCc1c2c(nc3ccc(O[C@@H]4O[C@H](C(=O)O)[C@@H](O)[C@H](O)[C@H]4O)cc13)-c1cc3c(c(=O)n1C2)COC(=O)[C@]3(O)CC [SN-38G, SN-38 glucuronate conjugate]
cytotoxicity: no cytotoxicity
